The values that follow come from PMC8564658.

Chains of the proteins cited; added tags and fusions are not shown.
UniProt P01108: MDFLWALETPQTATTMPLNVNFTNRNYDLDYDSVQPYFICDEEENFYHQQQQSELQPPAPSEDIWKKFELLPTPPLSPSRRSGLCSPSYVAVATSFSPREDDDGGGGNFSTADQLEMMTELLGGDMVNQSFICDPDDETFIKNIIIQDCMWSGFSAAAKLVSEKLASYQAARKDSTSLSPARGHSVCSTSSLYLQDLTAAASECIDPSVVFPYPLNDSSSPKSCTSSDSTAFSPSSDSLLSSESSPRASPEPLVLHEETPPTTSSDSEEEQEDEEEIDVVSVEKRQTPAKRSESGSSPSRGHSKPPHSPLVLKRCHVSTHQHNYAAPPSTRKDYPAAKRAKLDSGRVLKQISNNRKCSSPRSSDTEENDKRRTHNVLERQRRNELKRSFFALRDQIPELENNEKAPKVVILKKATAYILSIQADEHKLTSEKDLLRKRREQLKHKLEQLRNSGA
UniProt Q61188: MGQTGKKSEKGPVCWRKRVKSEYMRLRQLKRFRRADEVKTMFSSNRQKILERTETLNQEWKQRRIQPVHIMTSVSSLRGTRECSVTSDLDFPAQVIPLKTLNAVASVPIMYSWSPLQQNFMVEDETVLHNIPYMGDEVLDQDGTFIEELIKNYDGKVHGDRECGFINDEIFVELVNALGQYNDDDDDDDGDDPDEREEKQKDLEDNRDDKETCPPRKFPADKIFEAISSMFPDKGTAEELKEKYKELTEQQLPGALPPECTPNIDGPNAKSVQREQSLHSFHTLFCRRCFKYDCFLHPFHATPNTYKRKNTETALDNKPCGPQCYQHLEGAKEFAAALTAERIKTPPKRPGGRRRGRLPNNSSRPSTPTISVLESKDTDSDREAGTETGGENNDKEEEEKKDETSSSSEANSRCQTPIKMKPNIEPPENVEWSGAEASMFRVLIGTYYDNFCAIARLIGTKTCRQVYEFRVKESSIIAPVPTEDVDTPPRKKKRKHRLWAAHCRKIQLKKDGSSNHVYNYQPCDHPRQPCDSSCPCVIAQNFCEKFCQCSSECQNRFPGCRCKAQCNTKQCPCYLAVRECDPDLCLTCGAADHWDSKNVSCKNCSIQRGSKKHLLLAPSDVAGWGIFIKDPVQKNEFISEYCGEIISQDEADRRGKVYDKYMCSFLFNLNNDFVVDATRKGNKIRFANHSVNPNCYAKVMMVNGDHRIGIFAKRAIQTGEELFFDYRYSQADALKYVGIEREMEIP
UniProt P13864: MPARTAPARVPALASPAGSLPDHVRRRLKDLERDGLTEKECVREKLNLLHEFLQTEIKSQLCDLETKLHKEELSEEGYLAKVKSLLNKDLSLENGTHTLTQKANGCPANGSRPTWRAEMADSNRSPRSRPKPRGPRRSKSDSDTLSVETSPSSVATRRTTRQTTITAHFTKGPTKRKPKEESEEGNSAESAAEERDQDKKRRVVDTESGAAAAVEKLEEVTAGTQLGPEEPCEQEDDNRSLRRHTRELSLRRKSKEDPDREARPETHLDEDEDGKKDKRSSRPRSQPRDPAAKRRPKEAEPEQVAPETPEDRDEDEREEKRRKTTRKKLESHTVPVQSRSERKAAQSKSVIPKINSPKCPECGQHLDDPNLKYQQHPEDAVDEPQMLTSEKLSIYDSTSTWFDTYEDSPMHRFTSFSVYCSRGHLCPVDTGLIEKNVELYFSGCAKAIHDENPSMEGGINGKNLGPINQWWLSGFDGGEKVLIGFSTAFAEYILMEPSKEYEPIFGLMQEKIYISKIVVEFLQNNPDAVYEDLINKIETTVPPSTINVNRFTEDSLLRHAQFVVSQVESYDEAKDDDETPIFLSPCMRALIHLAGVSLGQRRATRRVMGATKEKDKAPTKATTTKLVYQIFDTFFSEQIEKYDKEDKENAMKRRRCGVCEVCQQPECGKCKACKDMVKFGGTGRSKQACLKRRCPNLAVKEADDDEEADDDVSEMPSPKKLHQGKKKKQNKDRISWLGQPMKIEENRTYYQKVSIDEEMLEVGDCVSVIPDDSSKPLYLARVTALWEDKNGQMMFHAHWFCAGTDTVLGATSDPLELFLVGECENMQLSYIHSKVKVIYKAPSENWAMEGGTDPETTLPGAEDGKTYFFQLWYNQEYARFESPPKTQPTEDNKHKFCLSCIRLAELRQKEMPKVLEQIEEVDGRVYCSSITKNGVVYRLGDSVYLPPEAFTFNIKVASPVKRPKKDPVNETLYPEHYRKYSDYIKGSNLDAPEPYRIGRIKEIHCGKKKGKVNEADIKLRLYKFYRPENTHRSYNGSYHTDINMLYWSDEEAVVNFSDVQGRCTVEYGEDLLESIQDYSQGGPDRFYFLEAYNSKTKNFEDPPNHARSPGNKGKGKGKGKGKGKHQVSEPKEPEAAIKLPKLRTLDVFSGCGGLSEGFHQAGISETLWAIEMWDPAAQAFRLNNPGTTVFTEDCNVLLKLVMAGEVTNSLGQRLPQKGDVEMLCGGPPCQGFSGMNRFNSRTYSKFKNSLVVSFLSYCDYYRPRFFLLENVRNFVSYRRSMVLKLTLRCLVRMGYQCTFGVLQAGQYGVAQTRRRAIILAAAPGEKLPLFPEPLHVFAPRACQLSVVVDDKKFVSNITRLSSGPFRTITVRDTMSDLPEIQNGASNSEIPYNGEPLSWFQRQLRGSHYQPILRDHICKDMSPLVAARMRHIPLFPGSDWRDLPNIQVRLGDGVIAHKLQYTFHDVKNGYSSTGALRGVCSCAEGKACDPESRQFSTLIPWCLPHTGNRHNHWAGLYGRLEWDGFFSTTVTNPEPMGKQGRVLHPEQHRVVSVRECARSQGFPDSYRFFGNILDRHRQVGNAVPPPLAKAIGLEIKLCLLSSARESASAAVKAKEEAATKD

Assay [1] deals with FLAG-tagged c-Myc (UniProt P01108). Description: co-IP; cells co-transfected with Myc-tagged EZH2, Myc-tagged DNMT1 and different FLAG-tagged c-Myc fragments.
The target of assay [2] is c-Myc (mouse (endogenous in MPC-5 podocytes)) (UniProt P01108). Description: co-IP; lysates (NP-40 lysis buffer, 1% PMSF) of podocytes treated with Hcy; indicated antibody 2 h, Protein-G beads 2 h at 4 °C; western blotting. Background: In western blotting, separated proteins are transferred to a membrane and probed.
For assay [3], the target named is enhancer of zeste homolog 2 (mouse (endogenous in MPC-5 podocytes)) (UniProt Q61188). The description is as above.

Results are given in words; binding and its absence hold for the method and conditions named. Binding seen in cells or lysates may run through a third protein. Some results given as binding are weak or reduced against the parent protein; the word gives no strength.

“Myc-tagged DNMT1 (from UniProt P13864 1-1620)”: the binding result in assay [1] is given as “binds”. In the case of “enhancer of zeste homolog 2 (from UniProt Q61188 1-746)”, the binding result in assay [2] is recorded as “binds”. Turning to “Myc-tagged EZH2 (from UniProt Q61188 1-746)”, the binding result in assay [1] was “binds”. On to “DNA methyltransferase 1 (from UniProt P13864 1-1620)”, for which the binding result in assay [3] and in assay [2] was “binds” each time.
